These are yes or no findings as the source states them, for the method shown. In cells and extracts the contact can be indirect.
Tests used:
[1] = biological target: tyrosine hydroxylase (TH), endogenous in mouse striatum and midbrain (mouse (endogenous in C57BL/6 striatum and midbrain)) (UniProt P24529); assay: co-IP; mouse striatal and midbrain lysates (50 mM Tris pH 7.4, 150 mM NaCl, 0.1% SDS, 0.5% Na deoxycholate, 1% Triton X-100); 500 µg lysate with 5 µg TH or PICK1 antibody overnight at 4°C, Protein-G beads, immunoblotting
[2] = biological target: PICK1, endogenous in mouse striatum and midbrain (mouse (endogenous in C57BL/6 striatum and midbrain)) (UniProt Q62083); assay: as above

The chains behind the UniProt entries cited, without tags or fusion partners.
UniProt P24529: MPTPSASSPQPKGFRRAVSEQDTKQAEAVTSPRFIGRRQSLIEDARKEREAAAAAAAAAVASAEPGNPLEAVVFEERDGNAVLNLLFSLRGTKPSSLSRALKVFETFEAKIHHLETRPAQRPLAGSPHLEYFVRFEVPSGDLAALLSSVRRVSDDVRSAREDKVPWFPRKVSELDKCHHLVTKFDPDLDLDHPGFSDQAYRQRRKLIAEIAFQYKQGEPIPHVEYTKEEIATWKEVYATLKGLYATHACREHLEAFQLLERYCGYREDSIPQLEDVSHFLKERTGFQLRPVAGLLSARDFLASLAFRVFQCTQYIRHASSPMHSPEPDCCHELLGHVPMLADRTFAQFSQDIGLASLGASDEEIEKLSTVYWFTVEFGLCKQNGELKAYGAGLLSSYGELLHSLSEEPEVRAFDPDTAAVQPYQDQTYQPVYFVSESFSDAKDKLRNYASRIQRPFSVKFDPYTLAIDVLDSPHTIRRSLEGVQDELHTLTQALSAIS
UniProt Q62083: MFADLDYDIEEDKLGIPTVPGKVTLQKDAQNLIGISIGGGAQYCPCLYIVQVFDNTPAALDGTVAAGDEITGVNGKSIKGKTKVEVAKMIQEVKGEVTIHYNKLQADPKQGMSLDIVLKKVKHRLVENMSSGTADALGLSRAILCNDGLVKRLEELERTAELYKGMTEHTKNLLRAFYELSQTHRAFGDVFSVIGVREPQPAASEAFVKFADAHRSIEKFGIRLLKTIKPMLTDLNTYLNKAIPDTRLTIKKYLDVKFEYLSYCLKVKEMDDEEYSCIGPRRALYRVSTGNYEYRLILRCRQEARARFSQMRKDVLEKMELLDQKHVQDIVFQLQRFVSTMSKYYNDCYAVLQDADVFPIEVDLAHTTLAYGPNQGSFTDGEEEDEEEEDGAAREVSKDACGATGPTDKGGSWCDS

In the case of “PICK1, endogenous in mouse striatum and midbrain (from UniProt Q62083 1-416)”, the binding [1] is reported as “no binding”.

In the case of “tyrosine hydroxylase (TH), endogenous in mouse striatum and midbrain (from UniProt P24529 1-498) (enzyme)”, the binding [2] is reported as “no binding”.

From paper PMC6001137
